Source: article PMC6513894
Results are given in words; binding and its absence hold for the method and conditions named. In cells and extracts the contact can be indirect. Some binding calls cover weakened binding; strength is not graded here.

Amino acid sequences for entries named in this document (tags omitted).
UniProt Q921G8: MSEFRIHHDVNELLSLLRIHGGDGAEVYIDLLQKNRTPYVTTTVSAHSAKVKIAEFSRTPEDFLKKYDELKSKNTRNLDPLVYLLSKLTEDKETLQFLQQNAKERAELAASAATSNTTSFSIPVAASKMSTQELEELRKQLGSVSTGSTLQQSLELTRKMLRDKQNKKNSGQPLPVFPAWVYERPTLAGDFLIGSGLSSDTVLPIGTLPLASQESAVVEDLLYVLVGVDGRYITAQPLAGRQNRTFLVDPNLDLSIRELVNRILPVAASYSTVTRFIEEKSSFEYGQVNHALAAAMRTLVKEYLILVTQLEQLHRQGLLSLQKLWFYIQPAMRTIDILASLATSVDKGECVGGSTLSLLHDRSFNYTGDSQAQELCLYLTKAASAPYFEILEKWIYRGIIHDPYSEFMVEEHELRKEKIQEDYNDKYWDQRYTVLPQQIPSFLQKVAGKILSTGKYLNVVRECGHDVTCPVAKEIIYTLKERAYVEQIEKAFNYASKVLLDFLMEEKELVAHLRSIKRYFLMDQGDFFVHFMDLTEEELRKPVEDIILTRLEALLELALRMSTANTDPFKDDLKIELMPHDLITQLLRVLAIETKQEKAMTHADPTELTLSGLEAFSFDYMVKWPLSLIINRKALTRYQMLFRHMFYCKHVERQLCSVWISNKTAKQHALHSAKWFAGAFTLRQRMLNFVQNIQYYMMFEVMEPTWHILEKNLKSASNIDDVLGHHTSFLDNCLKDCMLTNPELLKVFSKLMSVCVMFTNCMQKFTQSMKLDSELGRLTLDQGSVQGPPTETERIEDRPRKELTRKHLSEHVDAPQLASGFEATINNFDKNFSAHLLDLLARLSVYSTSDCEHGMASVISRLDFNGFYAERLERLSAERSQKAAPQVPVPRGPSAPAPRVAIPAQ
UniProt Q9D4F8: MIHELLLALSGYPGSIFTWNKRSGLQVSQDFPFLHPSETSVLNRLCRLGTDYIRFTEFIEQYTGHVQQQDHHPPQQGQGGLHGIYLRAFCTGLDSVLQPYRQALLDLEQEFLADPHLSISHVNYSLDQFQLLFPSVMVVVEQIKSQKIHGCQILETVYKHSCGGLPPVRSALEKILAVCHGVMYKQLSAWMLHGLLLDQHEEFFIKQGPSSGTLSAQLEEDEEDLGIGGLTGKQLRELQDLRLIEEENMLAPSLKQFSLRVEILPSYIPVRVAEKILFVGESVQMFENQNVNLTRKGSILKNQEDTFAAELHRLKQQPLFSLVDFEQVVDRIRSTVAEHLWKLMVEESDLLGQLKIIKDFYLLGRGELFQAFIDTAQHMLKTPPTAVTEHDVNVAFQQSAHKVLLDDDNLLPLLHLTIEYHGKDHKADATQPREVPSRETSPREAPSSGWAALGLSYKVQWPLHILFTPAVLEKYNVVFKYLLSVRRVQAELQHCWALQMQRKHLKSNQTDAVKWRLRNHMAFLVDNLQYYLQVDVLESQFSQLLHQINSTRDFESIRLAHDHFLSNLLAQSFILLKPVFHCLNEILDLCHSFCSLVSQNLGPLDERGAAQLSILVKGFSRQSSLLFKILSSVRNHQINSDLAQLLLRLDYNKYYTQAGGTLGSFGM

Target: GCP2 (mouse (endogenous in Neuro2a)) (UniProt Q921G8)
Assay: co-IP; Neuro2A extracts (HEPES buffer pH 7.6, 75 mM NaCl, 1% Nonidet P-40; diluted with TBST to 0.6 mg/ml) incubated with Protein A beads saturated with monoclonal antibody GCP2-01 to GCP2; reciprocal immunoprecipitation

- binding: binds
Substance: GCP4 (from UniProt Q9D4F8 1-667)
